Experimental data: PubChem BioAssay AID1259308 (NCATS, 2017)
Test: 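Candidate targets for better recombinant protein yield in mammalian cells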 (primary screen). Cell system: human HEK293 embryonic kidney cells stably expressing firefly luciferase (HEK-CMV-Luc2-Hygro). Reagents: single siRNA against human genes, 0.8 pmol siRNA per well. Timing: 72 h. Measured: 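Luciferase light (ONE-Glo) measured on one replicate plate set and viability (CellTiter-Glo) on the other, scaled to a negative control siRNA, with robust z-scores and luciferase per cell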. Scale: total luciferase, z-score: higher = more reporter protein produced. Rule for the call: 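An siRNA counts as active if its total luciferase robust z-score exceeds 3; genes with two or more such siRNAs out of three were retested with fresh siRNAs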. Meaning of the calls: active = raised luciferase; inactive = no rise.
Here is an unselected part of about 59,000 deposited reagents. Of all reagents, about 1,510 (2.6%) got an active call. 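Calls use total luciferase alone and ignore viability, so some active siRNAs may act by altering cell number.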 A number with no mark means an inactive call. Not all columns of the deposit are shown. Reagent sequences are not shown.

ASPN [SID160742262] — total luciferase, z-score = -1.21
ASPN [SID160742263] — total luciferase, z-score = 1.3
ASPN [SID160742264] — total luciferase, z-score = -2.98
H4C13 [SID160719917] — total luciferase, z-score = -0.485
H4C13 [SID160719918] — total luciferase, z-score = -0.883
H4C13 [SID160735051] — total luciferase, z-score = -0.605

Taken from above.
Entry of H4C13 [SID160719918] in “total luciferase, z-score”: -0.883
ASPN [SID160742263], total luciferase, z-score = 1.3

The results go on.
C11orf87 [SID160766895] — total luciferase, z-score = 0.153
C11orf87 [SID160766896] — total luciferase, z-score = -1.03
C11orf87 [SID160766897] — total luciferase, z-score = 0.566
SLC15A1 [SID160716948] — total luciferase, z-score = 3.15 (active)
SLC15A1 [SID160716949] — total luciferase, z-score = 1.76
SLC15A1 [SID160716950] — total luciferase, z-score = 0.0925
